Measurements reported in PubChem BioAssay AID602313 (National Center for Advancing Translational Sciences (NCATS), 2012).
The campaign covered roughly 390,000 compounds. About 760 (0.19%) were called active. This list was built around the results that the source calls inconclusive (neither active nor inactive); the mix of calls is not that of the screen. The call rests on the fitted dose curve; in most records, active means well fitted inhibition curve with a large enough effect; inconclusive means small, poorly fitted or top-dose-only effect; inactive means flat fitted curve, though single readings scatter. Potencies of inconclusive entries are doubtful fits and often do not repeat.

assay: qHTS for Inhibitors of Vif-A3F Interactions: qHTS; conditions: HeLa A3F-eYFP + Vif (tagged APOBEC3F with the HIV-1 protein that degrades it), YFP fluorescence increase; series mostly up to 46.1 µM; activity, negative = active: at the top concentration; further: nearly all actives have a fitted effect of over 65% in size; on activity, negative = active: % of control where 0% means no effect
Summary of the method: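 HeLa cells stably expressing A3F-eYFP plus Vif, plated and incubated overnight at 37 deg C, then exposed to compounds overnight at 37 deg C. Blocked degradation read as raised yellow fluorescence (Ex 488/Em 500-530).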
Potency means the concentration at half of the fitted maximal effect.

Compound	activity, negative = active	Potency
CCOC(=O)/C(=N/Nc1ccccc1)c1csc(Nc2ccccc2)n1	inactive: -20.7%	–
O=C(Nc1ccc2c(c1)OCO2)C(=O)c1c[nH]c2ccccc12	–	inconclusive: 3.98 µM [inhibitor, full curve, poor fit]
O=S(=O)(NCCc1ccc(F)cc1)c1cccc2cccnc12	–	inconclusive: 11.2 µM [inhibitor, single point]
NC(=O)C1CCN(CCS(=O)(=O)c2ccc(Cl)cc2)CC1	inactive: -10.3%	–
N/C(=N\OC(=O)c1ccco1)c1cccc([N+](=O)[O-])c1	–	inconclusive: 11.2 µM [inhibitor, single point]
N#Cc1c(NC(=O)c2ccc(Br)o2)n(-c2ccccc2)c2nc3ccccc3nc12	–	inconclusive: 17.8 µM [inhibitor, partial curve, poor fit]
c1cncc(CNc2nc(-c3cccnc3)nc3ccccc23)c1	inactive: -0.81%	–
CCOc1ccccc1N=c1oc2cc(O)ccc2cc1C(=O)NCC1CCCO1 (stereo not drawn)	–	inconclusive: 20 µM [inhibitor, single point]
CCN(CCCn1c(=S)[nH]c2ccc(N3CCOCC3)cc2c1=O)c1ccccc1	–	inconclusive: 35.5 µM [inhibitor, single point]
CN(C(=O)CSc1nc2ccccc2n1CC(=O)N(C)c1ccc(F)cc1)c1ccccc1	inactive: 3.3%	–
O=C(CCN1CCCCC1)c1ccc2c(c1)OCCO2	inactive: -4.1%	–
COc1cc(C(=O)N2CCN(c3ccc(Nc4ccccc4)nn3)CC2)cc(OC)c1OC	inactive: -9.9%	–
CCC(=O)N1CCc2cc(S(=O)(=O)NCCC(=O)Nc3ccccc3C)ccc21	–	inconclusive: 2.82 µM [inhibitor, partial curve, poor fit]
O=C1N[C@H]2CC=C[C@H]2Nc2ccccc21	–	inconclusive: 35.5 µM [inhibitor, single point]
Cc1ccc(SCCC(=O)Nc2cccnc2)cc1	–	inconclusive: 3.55 µM [inhibitor, partial curve, poor fit]
CCOC(=O)c1c(S(=O)(=O)N2CCC(C(=O)NCc3ccccc3OC)CC2)c(C)n(C)c1C	inactive: 0.785%	–
c1ccc(CCNc2nc3ccccc3n3nnnc23)cc1	–	inconclusive: 11.2 µM [inhibitor, partial curve, poor fit]
COC(=O)c1c(NC(=O)c2ccc(N(C)S(=O)(=O)c3ccc(C)cc3)cc2)sc2c1CCCC2	inactive: 10.8%	–
Cn1cnnc1SCC(=O)Nc1nc(-c2ccccc2)cs1	–	inconclusive: 35.5 µM [inhibitor, single point]
O=C(c1ccccc1)C1N=NCC1c1ccc(Cl)cc1 (stereo not drawn)	inactive: -9.69%	–
O=C(NCc1ccc2c(c1)OCO2)C1CCC(=O)N1C1CCCC1 (stereo not drawn)	–	inconclusive: 35.5 µM [inhibitor, single point]
CCOC(=O)c1c(NC(=O)c2ccccc2)sc2c1CCc1ccccc1-2	–	inconclusive: 0.316 µM [inhibitor, full curve, poor fit]
CN1c2ccccc2N(C)C1(C)c1ccccc1	–	inconclusive: 2.82 µM [inhibitor, full curve]
C=CCOc1cccc(C(=O)N2CCCC(Nc3ccc(F)cc3)C2)c1 (stereo not drawn)	–	inconclusive: 3.98 µM [inhibitor, single point]

Compound	activity, negative = active	Potency
Cc1c(NC(=O)/C(C#N)=C/c2ccccc2)c(=O)n(-c2ccccc2)n1C	inactive: -5.17%	–
CC(=O)CC1OC(=O)C(Br)=C1NCc1ccccc1 (stereo not drawn)	–	inconclusive: 22.4 µM [inhibitor, single point]
CCOc1ccc(N(CC(=O)N2CCOCC2)S(=O)(=O)c2ccc(Cl)cc2)cc1	–	inconclusive: 12.6 µM [inhibitor, single point]
N#Cc1cnn2cc(CCN3CCOCC3)c(-c3ccc(F)cc3)nc12	–	inconclusive: 1.12 µM [inhibitor, full curve, poor fit]
Cc1ccc2c(c1C)NC(C(=O)O)C1CC=CC21 (stereo not drawn)	inactive: -2.37%	–
O=C(NCc1cccnc1)NC1(C(F)(F)F)Oc2ccc(Cl)cc2O1 (stereo not drawn)	–	inconclusive: 3.55 µM [inhibitor, partial curve, poor fit]
N#CC1=C(N)C(C#N)(C#N)C(c2cccnc2)C2COCC=C12 (stereo not drawn)	inactive: -11.9%	–
CC1=Nn2c(nnc2-c2ccccc2Cl)SC1	inactive: -1.58%	–
COc1ccccc1CNC(=O)CSc1ncc2c(n1)-c1cc(Cl)ccc1N(Cc1ccccc1)S2(=O)=O	inactive: -1.97%	–
Cc1ccc(NC(=O)C(C)OC(=O)c2ccc(NC(=O)CC#N)cc2)cc1S(=O)(=O)N1CCOCC1 (stereo not drawn)	inactive: 4.85%	–
CC(C)c1nnc(NC(=O)CS(=O)(=O)Cc2ccccc2)s1	inactive: 11.9%	–
COc1ccc(-c2noc(-c3ccc(NCCc4ccccc4)c([N+](=O)[O-])c3)n2)cc1OC	inactive: -9.04%	–
N=c1c(C(=O)NCc2ccc(F)cc2)cc2c(=O)n3ccccc3nc2n1Cc1cccnc1	–	inconclusive: 25.1 µM [inhibitor, single point]
Cc1ccc(S(=O)(=O)N2CCOCC2)cc1NC(=O)CNCc1ccc(Cl)cc1Cl	inactive: 5.59%	–
CCOC(=O)N(O)c1ccc(C=Cc2ccccc2)cc1	inactive: 8.6%	–
COc1ccc(C(=O)O)cc1S(=O)(=O)Nc1ccc(N2CCCCC2)cc1	–	inconclusive: 35.5 µM [inhibitor, single point]
COc1ccccc1/C=C1\SC(=S)N(CCC(=O)NCCc2ccc(O)cc2)C1=O	–	inconclusive: 35.5 µM [inhibitor, single point]
Cc1ccc(S(=O)c2ccc([N+](=O)[O-])c3nonc23)cc1 (stereo not drawn)	–	active: 22.4 µM
Cc1ccn2c(NC(=O)c3cccs3)c(-c3ccccc3)nc2c1	–	inconclusive: 6.31 µM [inhibitor, single point]
CCN1CCN(C(=O)/C=C/c2ccc(C(C)C)cc2)CC1	–	inconclusive: 3.98 µM [inhibitor, partial curve, poor fit]
O=C(NCC(c1cccs1)N1CCOCC1)c1cc2ccccc2oc1=O (stereo not drawn)	inactive: 1.17%	–
c1ccc2c(c1)ncn2CCCOc1ccc2c(c1)CCC2	inactive: 1.96%	–
O=C(NC(=S)NC1CCCC1)c1ccccc1	–	inconclusive: 35.5 µM [inhibitor, single point]
COc1ccc(C2=NN(C(=O)CCC(=O)O)C(c3ccc([N+](=O)[O-])cc3)C2)cc1 (stereo not drawn)	inactive: 6.84%	–

Record cards, as listed above. Order of values: activity, negative = active	Potency
O=C(CCN1CCCCC1)c1ccc2c(c1)OCCO2 as listed: inactive: -4.1%	–
COc1ccccc1CNC(=O)CSc1ncc2c(n1)-c1cc(Cl)ccc1N(Cc1ccccc1)S2(=O)=O as listed: inactive: -1.97%	–
CCOc1ccc(N(CC(=O)N2CCOCC2)S(=O)(=O)c2ccc(Cl)cc2)cc1 as listed: –	inconclusive: 12.6 µM [inhibitor, single point]
